The results in this text go back to patent US20240092935A1.

This test has as its target T1, a-Dystroglycan peptide Ac-…-NH2 (chart ID 9).
T1 sequence (peptide, N-terminal acetyl; C-terminal amide; no GalNAc): PPTTTTKKP
The test can be described thus: Tn glycopeptide microarray, Alexa Fluor 488 goat anti-mouse IgM.

These are yes or no findings as the source states them, for the method shown.

B1: BaGs6, murine IgM anti-Tn monoclonal antibody from mouse ascites (antibody, V domains shown)
VH: DTMLQQSDAELVKPGASVKMSCKASGYTFTDHAIHWVKQKPEQGLEWIGYVSPGNGDIKYNEKFKGKATLSADKSSSTAYMQLNSLTSEDSAVYFCKRSYGSFDYWGQGTTLTVSS
VL: QIVLTQSPAIMSSSPGEKVALSCSASSSVSYVYWYQQKPGSSPKPWIYRTSNLASGVPARFSGSGSGTSYSLTISSMEAEDAATYYCQQYHSYPFTFGSGTKLEIKR
As to B1, the binding entry is on record as “no binding (tested: 1:200 dilution (text paragraph 261))”.
